{"sequences": {"note": "Protein sequences, listed by entry. Tags and fused reporters are not part of them.", "UniProt Q15561": "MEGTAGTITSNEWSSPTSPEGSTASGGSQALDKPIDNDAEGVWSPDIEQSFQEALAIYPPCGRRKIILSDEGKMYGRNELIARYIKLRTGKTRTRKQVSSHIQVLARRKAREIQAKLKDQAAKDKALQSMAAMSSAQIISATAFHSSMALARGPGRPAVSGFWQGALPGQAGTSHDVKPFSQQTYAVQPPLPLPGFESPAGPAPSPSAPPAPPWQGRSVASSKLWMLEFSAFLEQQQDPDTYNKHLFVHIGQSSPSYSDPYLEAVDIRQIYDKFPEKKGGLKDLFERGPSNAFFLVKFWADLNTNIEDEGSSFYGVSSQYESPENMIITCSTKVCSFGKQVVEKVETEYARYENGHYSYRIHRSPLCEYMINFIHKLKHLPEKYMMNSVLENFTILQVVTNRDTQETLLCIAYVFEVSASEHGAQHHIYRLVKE", "UniProt Q9NQB0": "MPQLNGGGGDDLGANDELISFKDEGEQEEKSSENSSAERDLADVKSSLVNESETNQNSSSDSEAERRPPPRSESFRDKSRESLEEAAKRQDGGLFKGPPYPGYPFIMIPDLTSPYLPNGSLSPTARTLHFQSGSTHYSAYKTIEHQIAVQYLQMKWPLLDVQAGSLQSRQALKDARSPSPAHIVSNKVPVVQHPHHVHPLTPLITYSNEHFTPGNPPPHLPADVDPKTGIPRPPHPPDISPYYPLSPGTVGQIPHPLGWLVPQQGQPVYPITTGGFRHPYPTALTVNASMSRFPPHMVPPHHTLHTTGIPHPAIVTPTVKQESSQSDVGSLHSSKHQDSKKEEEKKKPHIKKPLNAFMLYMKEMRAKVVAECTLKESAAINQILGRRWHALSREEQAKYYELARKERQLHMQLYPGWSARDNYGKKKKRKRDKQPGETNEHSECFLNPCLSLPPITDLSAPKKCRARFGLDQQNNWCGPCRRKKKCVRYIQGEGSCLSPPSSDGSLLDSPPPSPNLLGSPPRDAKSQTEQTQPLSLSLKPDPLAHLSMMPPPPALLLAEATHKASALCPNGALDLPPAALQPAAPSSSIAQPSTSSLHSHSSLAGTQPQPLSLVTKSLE"}, "source": "paper PMC5216127", "target": "TEAD4 (endogenous, HEK293T) (human (endogenous in HEK293T)) (UniProt Q15561)", "assay": "co-IP; immunoprecipitation by TEAD4, whole cell extracts prepared with or without DNase I (10 μg/ml), Protein A/G beads", "note": "No constants are given. Whether binding was seen depends on the method and setting. Binding seen in cells or lysates may run through a third protein. Some binding calls cover weakened binding; strength is not graded here.", "data": [{"substance": "TCF4 (endogenous, HEK293T) (from UniProt Q9NQB0 1-619)", "values": [{"measurement": "binding", "value": "binds"}]}]}
